Source: article PMC10564737, “Structure-based design of a phosphotyrosine-masked covalent ligand targeting the E3 ligase SOCS2” (Nature Communications, 2023)
Where “and” joins values, the source holds several entries; their conditions need not be identical. Equal values may be shown once. This continues a long series; more values of the same kind are listed elsewhere.

Chains of the proteins cited; added tags and fusions are not shown. Residues count along the entry.
UniProt O14508, 32-198: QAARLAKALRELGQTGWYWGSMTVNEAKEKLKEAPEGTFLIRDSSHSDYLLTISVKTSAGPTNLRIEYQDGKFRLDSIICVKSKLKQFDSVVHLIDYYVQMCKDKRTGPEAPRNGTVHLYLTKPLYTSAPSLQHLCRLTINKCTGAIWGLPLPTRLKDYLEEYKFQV

Biological target: T1, SBC2 (Homo sapiens, UniProt O14508)
T1 construct: SOCS2 (amino acids 32–198); His6 (N, cleaved yes); made in house; host or cells: E. coli BL21(DE3)
Experiment: Covalent fluorescence polarization (FP) probe displacement assay
Type: binding
Description: With the specific covalent modification of Cys111 established, we decided to fully characterize MN551 as a covalent SOCS2 inhibitor. […] (Fig. 2g, h, Supplementary Fig. 9). Due to the covalent nature of the competing inhibitor, a time-dependent reduction in the fraction of protein-bound probe is observed. […] This value illustrates reasonable specificity for a covalent inhibitor, with nonetheless scope for future optimization. In addition to characterizing the kinetic covalency parameters, we have also assessed the stability of the MN551 by monitoring its reactivity (half-life >70 min) with reduced glutathione (GSH) (Supplementary Fig. 10)[35].
To monitor the SBC2-ligand binding kinetics we designed a fluorescein-labeled small-molecule probe - compound 26. The fluorescence polarization (anisotropy) of a threefold serial dilution of 50 µM SBC2 in 10 nM of the probe in 100 mM HEPES pH 7.5, 50 mM NaCl, 0.5 mM TCEP, 2% DMSO was measured to determine the KL (Supplementary Fig. 9A) (BMG Labtech PHERAstar – firmware v1.33). Protein titration and the curves were fitted using GraphPad Prism 9, using one-site fitting models to determine the probe binding constant, KL. Samples were run in triplicate in 384 well plates, using a total volume per well of 16 μL. The bound fraction of the probe is measure using the equation:1 Fb=Af−A/Af−Ab Where,
A time-dependent reduction in probe anisotropy were measured for a 2-fold serial dilution of […] compound MN551 in 10 nM probe +300 μM SBC2. To determine the initial reversible binding affinity, the initial bound fraction of the probe at time = 0, Fbo (the y-intercept in Fb v/s Time plot, Supplementary Fig. 9B) was plotted against MN551 concentration, and the obtained IC50 is then converted to Ki (Supplementary Fig. 9C)[17]. The slope from Fb versus time graph when divided by Fbo gives rate of covalency, kobs. A plot of kobs v/s MN551 concentration using Michaelis–Menten model of GraphPad Prism 9, provides the parameters kinact (maximum potential rate of inactivation) and KI (concentration of MN551 at which kobs = kinact/2) (Supplementary Fig. 9D, E).
The observed first-order rate constant, kobs is related to KI and kinact by the equation:2 kobs=kinactI/KI+I
At [I]«[KI] the above equation is converted to3 […]
The slope from the plot of kobs against concentration of MN551 gives us the covalent efficiency parameter kinact/KI (Supp Fig. 9F)[30],[33].

[1] = MN551 12.599 nM; Cycle 8 (35 min)
[2] = MN551 12.599 nM; Cycle 9 (40 min)
[3] = MN551 12.599 nM; Cycle 10 (45 min)
[4] = MN551 12.599 nM; Cycle 12 (55 min); n=1
[5] = MN551 12.599 nM; Cycle 13 (60 min); n=1
[6] = MN551 12.599 nM; Cycle 14 (65 min); n=1
[7] = MN551 12.599 nM; Cycle 15 (70 min); n=1
[8] = MN551 17.6386 nM, Cycle 8 (35 min)
[9] = MN551 17.6386 nM, Cycle 9 (40 min)
[10] = MN551 17.6386 nM, Cycle 10 (45 min)
[11] = MN551 17.6386 nM, Cycle 11 (50 min)
[12] = MN551 17.6386 nM, Cycle 15 (70 min), n=1
[13] = MN551 17.6386 nM, Cycle 16 (75 min), n=1
[14] = MN551 17.6386 nM, Cycle 17 (80 min), n=1
[15] = MN551 17.6386 nM; Cycle 6 (25 min)
[16] = MN551 17.6386 nM; Cycle 7 (30 min)
[17] = MN551 17.6386 nM; Cycle 8 (35 min)
[18] = MN551 17.6386 nM; Cycle 9 (40 min)
[19] = MN551 17.6386 nM; Cycle 10 (45 min)
[20] = MN551 17.6386 nM; Cycle 12 (55 min); n=1
[21] = MN551 17.6386 nM; Cycle 13 (60 min); n=1
[22] = MN551 17.6386 nM; Cycle 14 (65 min); n=1
[23] = MN551 17.6386 nM; Cycle 15 (70 min); n=1
[24] = MN551 17.6386 nM; Cycle 16 (75 min); n=1
[25] = MN551 24.4141 nM, Cycle 8 (35 min)
[26] = MN551 24.4141 nM, Cycle 9 (40 min)
[27] = MN551 24.4141 nM, Cycle 10 (45 min)

O=C(CCl)Nc1cccc(CNC(=O)[C@H](Cc2ccc(OP(=O)(O)O)cc2)NC(=O)Cc2ccc(F)cc2)c1 [MN551]
Anisotropy [1]: 281 and 279.2 and 278.1 | Anisotropy data 485,520,520 [1]: 273.2 and 268.6 and 268.9 | Fb [1]: 0.9273 and 0.9804 and 1.0324 and 1.043 and 0.9991 and 1.024 | Anisotropy [2]: 280.4 and 278 and 277.6 | Anisotropy data 485,520,520 [2]: 274.9 and 267.4 and 269.4 | Fb [2]: 0.942 and 1.014 and 1.038 and 1.045 and 0.983 and 1.015 | Anisotropy [3]: 281.9 and 276.8 and 276.4 | Anisotropy data 485,520,520 [3]: 272.1 and 266.8 and 270.3 | Fb [3]: 0.9586 and 0.979 and 1.052 and 1.051 and 0.9824 and 1.003 | Anisotropy (MN551 12.599 nM; Cycle 11 (50 min); n=1): 271.5 and 266.2 and 266.8 | Anisotropy (MN551 12.599 nM; Cycle 12 (55 min)): 278.4 and 276.3 and 274.6 | Anisotropy [4]: 270.3 and 265 and 268.4 | Anisotropy based on Raw Data (485) [4]: 271.2 and 270.7 and 268.1 | Anisotropy [5]: 268.9 and 264.1 and 266.9 | Anisotropy based on Raw Data (485) [5]: 270.2 and 269.7 and 268.3 | Anisotropy [6]: 269.7 and 262.2 and 264.7 | Anisotropy based on Raw Data (485) [6]: 268.8 and 269.2 and 268.6 | Anisotropy [7]: 270 and 262.2 and 263.7 | Anisotropy based on Raw Data (485) [7]: 267.5 and 265 and 263.8 | Anisotropy data 485,520,520 (MN551 12.599 nM; Cycle 19 (90 min); n=1): 274.9 and 271 and 271.4 | Anisotropy data 485,520,520 (MN551 12.599 nM; Cycle 20 (95 min); n=1): 272.2 and 271.2 and 270 | Fb (MN551 17.6386 nM, Cycle 7 (30 min)): 0.9432 and 0.9544 and 0.9619 | Anisotropy based on Raw Data (485) [8]: 276.3 and 273.4 and 273.1 | Fb [8]: 0.9267 and 0.9481 and 0.9419 | Anisotropy based on Raw Data (485) [9]: 273.6 and 274.5 and 270 | Fb [9]: 0.9011 and 0.9496 and 0.9499 | Anisotropy based on Raw Data (485) [10]: 274.3 and 271.7 and 270.8 | Fb [10]: 0.925 and 0.9511 and 0.9718 | Anisotropy based on Raw Data (485) [11]: 274.7 and 271.2 and 270.6 | Fb [11]: 0.9333 and 0.9243 and 0.9768 | Anisotropy (MN551 17.6386 nM, Cycle 13 (60 min), n=1): 281.7 and 277.6 and 275.8 | Anisotropy (MN551 17.6386 nM, Cycle 14 (65 min), n=1): 280.8 and 275.7 and 274 | Anisotropy [12]: 281 and 274 and 274.8 | Normalised anisotropy (0 nM MN551 = 1, free probe = 0) [12]: 1.0809 and 0.9943 and 1.013 | Anisotropy [13]: 280.1 and 275.6 and 273.8 | Normalised anisotropy (0 nM MN551 = 1, free probe = 0) [13]: 1.043 and 1.026 and 1.003 | Anisotropy [14]: 277.6 and 273.4 and 274.2 | Normalised anisotropy (0 nM MN551 = 1, free probe = 0) [14]: 1.046 and 0.9971 and 1.036 | Fb, fraction bound (MN551 17.6386 nM; Cycle 3 (10 min)): 1.072 and 1.02 and 1.025 | Fb, fraction bound (MN551 17.6386 nM; Cycle 4 (15 min)): 1.083 and 1.022 and 1.06 | Fb, fraction bound (MN551 17.6386 nM; Cycle 5 (20 min)): 1.053 and 1.021 and 1.052 | Anisotropy data 485,520,520 [15]: 278.5 and 272.3 and 275.8 | Fb [15]: 0.9485 and 0.9804 and 1.036 | Fb, fraction bound [15]: 1.039 and 1.012 and 1.02 | Anisotropy data 485,520,520 [16]: 276.9 and 272.1 and 272.6 | Fb [16]: 0.9844 and 0.9814 and 1.0283 | Fb, fraction bound [16]: 1.038 and 1.003 and 1.033 | Anisotropy [17]: 284.7 and 280.2 and 281 | Anisotropy data 485,520,520 [17]: 275.9 and 271.7 and 272.3 | Fb [17]: 0.9751 and 0.9892 and 1.068 and 1.078 and 1.008 and 1.053 | Anisotropy [18]: 283.9 and 280.3 and 280.1 | Anisotropy data 485,520,520 [18]: 272.9 and 270.4 and 271.6 | Fb [18]: 0.9603 and 1.02 and 1.029 and 1.078 and 1.005 and 1.039 | Anisotropy [19]: 282.5 and 279.3 and 278.2 | Anisotropy data 485,520,520 [19]: 271.9 and 267.8 and 272.4 | Fb [19]: 0.9913 and 0.987 and 1.066 and 1.0566 and 1.006 and 1.02 | Anisotropy (MN551 17.6386 nM; Cycle 11 (50 min); n=1): 272.7 and 267.2 and 271.7 | Anisotropy [20]: 273 and 266.9 and 270.4 | Anisotropy based on Raw Data (485) [20]: 273.4 and 271.6 and 267.8 | Anisotropy [21]: 271.5 and 263.7 and 266.8 | Anisotropy based on Raw Data (485) [21]: 272.7 and 270.5 and 269.5 | Anisotropy [22]: 271.6 and 263.6 and 267.8 | Anisotropy based on Raw Data (485) [22]: 273.6 and 269.8 and 267.5 | Anisotropy [23]: 270.9 and 265 and 268.1 | Anisotropy based on Raw Data (485) [23]: 273 and 269.5 and 267.5 | Anisotropy [24]: 269.7 and 261 and 265.8 | Anisotropy based on Raw Data (485) [24]: 268.8 and 268.3 and 264.8 | Anisotropy data 485,520,520 (MN551 17.6386 nM; Cycle 19 (90 min); n=1): 279.6 and 271 and 272.7 | Anisotropy data 485,520,520 (MN551 17.6386 nM; Cycle 20 (95 min); n=1): 275.6 and 272 and 272.6 | Fb (MN551 24.4141 nM, Cycle 7 (30 min)): 0.8913 and 0.9456 and 0.9838 | Anisotropy based on Raw Data (485) [25]: 282.3 and 281 and 280.6 | Fb [25]: 0.8909 and 0.9733 and 0.9792 | Anisotropy based on Raw Data (485) [26]: 281.1 and 280.1 and 278.6 | Fb [26]: 0.8729 and 0.9828 and 0.9742 | Anisotropy based on Raw Data (485) [27]: 279.7 and 279.2 and 278.1 | Fb [27]: 0.8604 and 0.9623 and 0.9864 | Anisotropy based on Raw Data (485) (MN551 24.4141 nM, Cycle 11 (50 min)): 279.7 and 280.2 and 277.8 | Anisotropy (MN551 24.4141 nM, Cycle 13 (60 min), n=1): 279.2 and 278.9 and 278.1 | Anisotropy (MN551 24.4141 nM, Cycle 14 (65 min), n=1): 279.8 and 278.8 | Anisotropy (MN551 24.4141 nM, Cycle 15 (70 min), n=1): 278.6 and 279.7 and 276.3
